Test results taken from paper PMC13049930.
These are yes or no findings as the source states them, for the method shown. Binding seen in cells or lysates may run through a third protein. Some entries that bind do so weakly or less than the wild type.

Amino acid sequences for entries named in this document (tags omitted).
UniProt Q99J95: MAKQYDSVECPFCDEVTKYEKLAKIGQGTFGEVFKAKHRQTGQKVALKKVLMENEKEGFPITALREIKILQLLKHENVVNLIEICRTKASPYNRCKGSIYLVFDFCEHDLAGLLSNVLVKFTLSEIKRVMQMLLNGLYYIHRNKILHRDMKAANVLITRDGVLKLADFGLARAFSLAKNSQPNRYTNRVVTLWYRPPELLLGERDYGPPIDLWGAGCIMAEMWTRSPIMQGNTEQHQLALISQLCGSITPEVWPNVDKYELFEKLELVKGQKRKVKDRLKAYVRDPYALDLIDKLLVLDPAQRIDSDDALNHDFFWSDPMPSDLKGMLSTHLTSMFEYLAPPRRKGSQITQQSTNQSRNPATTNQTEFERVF
UniProt Q9QWV9: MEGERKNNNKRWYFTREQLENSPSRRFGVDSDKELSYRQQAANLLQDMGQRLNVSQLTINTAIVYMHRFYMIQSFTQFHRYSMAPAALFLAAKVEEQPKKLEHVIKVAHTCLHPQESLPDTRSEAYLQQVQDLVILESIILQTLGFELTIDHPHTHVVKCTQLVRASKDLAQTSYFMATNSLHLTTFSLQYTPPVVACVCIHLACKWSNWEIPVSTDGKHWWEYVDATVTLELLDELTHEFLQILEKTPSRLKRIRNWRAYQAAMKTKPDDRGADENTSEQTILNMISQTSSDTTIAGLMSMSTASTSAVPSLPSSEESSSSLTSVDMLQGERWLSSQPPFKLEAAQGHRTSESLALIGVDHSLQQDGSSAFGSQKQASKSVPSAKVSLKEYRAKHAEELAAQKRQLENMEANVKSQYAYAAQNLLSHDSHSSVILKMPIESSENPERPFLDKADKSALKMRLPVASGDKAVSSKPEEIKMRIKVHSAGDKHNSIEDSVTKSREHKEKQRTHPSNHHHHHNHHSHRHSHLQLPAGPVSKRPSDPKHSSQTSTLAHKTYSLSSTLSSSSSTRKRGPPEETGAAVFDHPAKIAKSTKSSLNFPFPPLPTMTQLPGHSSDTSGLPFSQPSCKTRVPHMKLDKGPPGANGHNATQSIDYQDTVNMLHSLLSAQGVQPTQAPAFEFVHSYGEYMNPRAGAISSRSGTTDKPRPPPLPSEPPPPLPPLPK

Molecular target: cyclin-dependent kinase 9 (CDK9), isoform not told apart (mouse (endogenous in primary cortical neurons, hippocampus and N2a cells)) (UniProt Q99J95)
Test: co-IP; primary cortical neuron lysate (mouse); HEXIM1, CDK9 or IgG antibody on protein A and G Dynabeads, 1 h at 4 °C; lysis buffer 150 mM NaCl, 50 mM Tris-HCl, 1% NP-40, 5 mM EDTA; Western blot

With “Cyclin T1 (CCNT1) (from UniProt Q9QWV9 1-724)” the binding was “binds”.
